Test results: article PMC10076305
Results are given in words; binding and its absence hold for the method and conditions named. Binding seen in cells or lysates may run through a third protein. Some entries that bind do so weakly or less than the wild type. Each block holds one molecule with its values, some of them ahead of it.

By UniProt entry, the sequences of proteins in these tests, tags left out.
UniProt P37238: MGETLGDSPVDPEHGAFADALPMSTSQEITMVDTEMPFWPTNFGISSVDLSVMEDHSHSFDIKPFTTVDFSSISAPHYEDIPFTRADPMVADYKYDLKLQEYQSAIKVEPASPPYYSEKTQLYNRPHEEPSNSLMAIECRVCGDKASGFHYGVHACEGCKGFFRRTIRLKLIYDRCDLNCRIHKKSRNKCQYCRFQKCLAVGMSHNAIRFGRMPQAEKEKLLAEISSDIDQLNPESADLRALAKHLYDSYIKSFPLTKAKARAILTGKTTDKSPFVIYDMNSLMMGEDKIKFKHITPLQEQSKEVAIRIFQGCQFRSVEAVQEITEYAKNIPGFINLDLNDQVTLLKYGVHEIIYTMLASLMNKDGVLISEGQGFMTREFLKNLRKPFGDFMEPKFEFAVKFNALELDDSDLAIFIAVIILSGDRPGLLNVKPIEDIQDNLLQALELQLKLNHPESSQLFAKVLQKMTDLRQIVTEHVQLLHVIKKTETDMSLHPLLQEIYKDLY

Molecular target: T1, Staphylococcal Nuclease And Tudor Domain Containing 1 (mouse (endogenous in C3H10 and 3T3-L1)) (UniProt Q78PY7)
T1 sequence: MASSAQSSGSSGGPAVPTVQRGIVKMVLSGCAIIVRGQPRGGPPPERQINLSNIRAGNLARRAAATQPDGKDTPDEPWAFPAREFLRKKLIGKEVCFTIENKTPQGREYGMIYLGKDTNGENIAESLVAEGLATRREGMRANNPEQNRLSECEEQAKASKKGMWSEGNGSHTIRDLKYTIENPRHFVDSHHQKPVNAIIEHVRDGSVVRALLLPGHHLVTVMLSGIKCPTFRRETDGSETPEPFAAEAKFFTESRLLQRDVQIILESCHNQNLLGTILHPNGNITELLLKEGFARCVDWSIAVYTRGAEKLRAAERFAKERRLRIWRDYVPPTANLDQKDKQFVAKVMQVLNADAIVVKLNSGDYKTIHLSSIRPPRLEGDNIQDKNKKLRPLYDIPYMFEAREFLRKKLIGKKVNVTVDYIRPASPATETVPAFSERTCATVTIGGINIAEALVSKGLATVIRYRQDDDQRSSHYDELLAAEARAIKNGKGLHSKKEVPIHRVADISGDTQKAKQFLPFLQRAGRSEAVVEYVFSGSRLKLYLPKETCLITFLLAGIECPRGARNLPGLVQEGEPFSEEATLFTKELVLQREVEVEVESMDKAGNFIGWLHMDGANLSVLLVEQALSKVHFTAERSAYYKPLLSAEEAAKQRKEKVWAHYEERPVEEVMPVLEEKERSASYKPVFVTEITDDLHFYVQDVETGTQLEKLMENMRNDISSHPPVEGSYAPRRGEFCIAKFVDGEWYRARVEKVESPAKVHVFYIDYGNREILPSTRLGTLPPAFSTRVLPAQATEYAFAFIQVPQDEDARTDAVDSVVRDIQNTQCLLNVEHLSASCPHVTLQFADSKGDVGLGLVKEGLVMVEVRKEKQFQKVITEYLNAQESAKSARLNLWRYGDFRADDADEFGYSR
Assay: co-IP; endogenous proteins in RIPA lysates of C3H10 and 3T3-L1 cells, harvested at the indicated time points of adipogenic differentiation; antibody on Protein L magnetic beads, 1 h at room temperature, washed in PBST; IgG antibody as negative control; Western blot

binding: binds
Molecule: Peroxisome proliferator activated receptor gamma (from UniProt P37238 1-505)

binding: binds
B1: Microfibril-Associated Protein 5 (protein, UniProt Q9QZJ6 29-164)
chain: QRGDDVPETFTDDPNLVNDPSTDDTALADITPSTDDLAGDKNATAECRDEKFACTRLYSVHRPVRQCVHQSCFTSLRRMYIINNEICSRLVCKEHEAMKDELCRQMAGLPPRRLRRSNYFRLPPCENMNLQRPDGL
